The source gives many values for each of these; only a part stands here.
Experiments:
Assay type in all cases: cell-based
[1] = target: T1, RNA polymerase II (Mus musculus) (UniProt P08775+Q8CFI7+P97760+A0A3Q4L2S8+Q80UW8+P61219+P62488+Q923G2+P60898+O08740+Q63871+P62876); experiment: Inhibition of RNA polymerase II in mouse B16-F1 migrating cells assessed as fold change in Cited1-RNA stability at 0.1 mM measured by ChIP-seq analysis relative to control cells
[2] = target: T1, RNA polymerase II (Mus musculus); experiment: Inhibition of RNA polymerase II in mouse B16-F1 migrating cells assessed as fold change in Myo1h-RNA stability at 0.1 mM measured by ChIP-seq analysis relative to control cells
[3] = target: T1, RNA polymerase II (Mus musculus); experiment: Inhibition of RNA polymerase II in mouse B16-F1 migrating cells assessed as fold change in Gys1-RNA stability at 0.1 mM measured by ChIP-seq analysis relative to control cells
[4] = target: T1, RNA polymerase II (Mus musculus); experiment: Inhibition of RNA polymerase II in mouse B16-F1 migrating cells assessed as fold change in Cdc42ep5-RNA stability at 0.1 mM measured by ChIP-seq analysis relative to control cells
[5] = target: T1, RNA polymerase II (Mus musculus); experiment: Inhibition of RNA polymerase II in mouse B16-F1 migrating cells assessed as fold change in Emp3-RNA stability at 0.1 mM measured by ChIP-seq analysis relative to control cells
[6] = target: T1, RNA polymerase II (Mus musculus); experiment: Inhibition of RNA polymerase II in mouse B16-F1 migrating cells assessed as fold change in Pgam1-RNA stability at 0.1 mM measured by ChIP-seq analysis relative to control cells
[7] = target: T1, RNA polymerase II (Mus musculus); experiment: Inhibition of RNA polymerase II in mouse B16-F1 migrating cells assessed as fold change in St6galnac6-RNA stability at 0.1 mM measured by ChIP-seq analysis relative to control cells
[8] = target: T1, RNA polymerase II (Mus musculus); experiment: Inhibition of RNA polymerase II in mouse B16-F1 migrating cells assessed as fold change in Timm22-RNA stability at 0.1 mM measured by ChIP-seq analysis relative to control cells
[9] = target: T1, RNA polymerase II (Mus musculus); experiment: Inhibition of RNA polymerase II in mouse B16-F1 migrating cells assessed as fold change in Efr3a-RNA stability at 0.1 mM measured by ChIP-seq analysis relative to control cells
[10] = target: T1, RNA polymerase II (Mus musculus); experiment: Inhibition of RNA polymerase II in mouse B16-F1 migrating cells assessed as fold change in Ctage5-RNA stability at 0.1 mM measured by ChIP-seq analysis relative to control cells
[11] = target: T1, RNA polymerase II (Mus musculus); experiment: Inhibition of RNA polymerase II in mouse B16-F1 migrating cells assessed as fold change in Pds5b-RNA stability at 0.1 mM measured by ChIP-seq analysis relative to control cells
[12] = target: T1, RNA polymerase II (Mus musculus); experiment: Inhibition of RNA polymerase II in mouse B16-F1 migrating cells assessed as fold change in Ngly1-RNA stability at 0.1 mM measured by ChIP-seq analysis relative to control cells
[13] = target: T1, RNA polymerase II (Mus musculus); experiment: Inhibition of RNA polymerase II in mouse B16-F1 migrating cells assessed as fold change in Synj2bp-RNA stability at 0.1 mM measured by ChIP-seq analysis relative to control cells
[14] = target: T1, RNA polymerase II (Mus musculus); experiment: Inhibition of RNA polymerase II in mouse B16-F1 migrating cells assessed as fold change in Rapgef2-RNA stability at 0.1 mM measured by ChIP-seq analysis relative to control cells
[15] = target: T1, RNA polymerase II (Mus musculus); experiment: Inhibition of RNA polymerase II in mouse B16-F1 migrating cells assessed as fold change in Togaram1-RNA stability at 0.1 mM measured by ChIP-seq analysis relative to control cells
[16] = target: T1, RNA polymerase II (Mus musculus); experiment: Inhibition of RNA polymerase II in mouse B16-F1 migrating cells assessed as fold change in C330007P06Rik-RNA stability at 0.1 mM measured by ChIP-seq analysis relative to control cells
[17] = target: T1, RNA polymerase II (Mus musculus); experiment: Inhibition of RNA polymerase II in mouse B16-F1 migrating cells assessed as fold change in Pet2-RNA stability at 0.1 mM measured by ChIP-seq analysis relative to control cells
[18] = target: T1, RNA polymerase II (Mus musculus); experiment: Inhibition of RNA polymerase II in mouse B16-F1 migrating cells assessed as fold change in Tmtc3-RNA stability at 0.1 mM measured by ChIP-seq analysis relative to control cells
[19] = target: T1, RNA polymerase II (Mus musculus); experiment: Inhibition of RNA polymerase II in mouse B16-F1 migrating cells assessed as fold change in Kif5b-RNA stability at 0.1 mM measured by ChIP-seq analysis relative to control cells
[20] = target: T1, RNA polymerase II (Mus musculus); experiment: Inhibition of RNA polymerase II in mouse B16-F1 migrating cells assessed as fold change in Atad5-RNA stability at 0.1 mM measured by ChIP-seq analysis relative to control cells
[21] = target: Histone-lysine N-methyltransferase EZH2 (Mus musculus) (UniProt Q61188); experiment: Inhibition of EZH2 in mouse B16-F1 migrating cells assessed as fold change in H3K27me3-independent regulated Ctgf-mRNA expression at 3 uM measured by ChIP-seq analysis relative to control cells
[22] = target: Histone-lysine N-methyltransferase EZH2 (Mus musculus) (UniProt Q61188); experiment: Inhibition of EZH2 in mouse B16-F1 migrating cells assessed as fold change in H3K27me3-independent regulated Clybl-mRNA expression at 3 uM measured by ChIP-seq analysis relative to control cells
[23] = target: Histone-lysine N-methyltransferase EZH2 (Mus musculus) (UniProt Q61188); experiment: Inhibition of EZH2 in mouse B16-F1 migrating cells assessed as fold change in H3K27me3-buffered regulated Sh3pxd2b-mRNA expression at 3 uM measured by ChIP-seq analysis relative to control cells
[24] = target: Histone-lysine N-methyltransferase EZH2 (Mus musculus) (UniProt Q61188); experiment: Inhibition of EZH2 in mouse B16-F1 migrating cells assessed as fold change in H3K27me3-buffered regulated Eya1-mRNA expression at 3 uM measured by ChIP-seq analysis relative to control cells
[25] = target: Histone-lysine N-methyltransferase EZH2 (Mus musculus) (UniProt Q61188); experiment: Inhibition of EZH2 in mouse B16-F1 migrating cells assessed as fold change in H3K27me3-buffered regulated Atxn7l2-mRNA expression at 3 uM measured by ChIP-seq analysis relative to control cells
[26] = target: Histone-lysine N-methyltransferase EZH2 (Mus musculus) (UniProt Q61188); experiment: Inhibition of EZH2 in mouse B16-F1 migrating cells assessed as fold change in H3K27me3-buffered regulated Cenpf-mRNA expression at 3 uM measured by ChIP-seq analysis relative to control cells
[27] = target: Histone-lysine N-methyltransferase EZH2 (Mus musculus) (UniProt Q61188); experiment: Inhibition of EZH2 in mouse B16-F1 migrating cells assessed as fold change in H3K27me3-buffered regulated 9930021J03Rik-mRNA expression at 3 uM measured by ChIP-seq analysis relative to control cells
[28] = target: Histone-lysine N-methyltransferase EZH2 (Mus musculus) (UniProt Q61188); experiment: Inhibition of EZH2 in mouse B16-F1 migrating cells assessed as fold change in H3K27me3-buffered regulated Cenpj-mRNA expression at 3 uM measured by ChIP-seq analysis relative to control cells
[29] = target: Histone-lysine N-methyltransferase EZH2 (Mus musculus) (UniProt Q61188); experiment: Inhibition of EZH2 in mouse B16-F1 migrating cells assessed as fold change in H3K27me3-buffered regulated Adam19-mRNA expression at 3 uM measured by ChIP-seq analysis relative to control cells
[30] = target: Histone-lysine N-methyltransferase EZH2 (Mus musculus) (UniProt Q61188); experiment: Inhibition of EZH2 in mouse B16-F1 migrating cells assessed as fold change in H3K27me3-buffered regulated Sema4c-mRNA expression at 3 uM measured by ChIP-seq analysis relative to control cells

Amino acid sequences for entries named in this document (tags omitted).
UniProt Q61188, whole entry: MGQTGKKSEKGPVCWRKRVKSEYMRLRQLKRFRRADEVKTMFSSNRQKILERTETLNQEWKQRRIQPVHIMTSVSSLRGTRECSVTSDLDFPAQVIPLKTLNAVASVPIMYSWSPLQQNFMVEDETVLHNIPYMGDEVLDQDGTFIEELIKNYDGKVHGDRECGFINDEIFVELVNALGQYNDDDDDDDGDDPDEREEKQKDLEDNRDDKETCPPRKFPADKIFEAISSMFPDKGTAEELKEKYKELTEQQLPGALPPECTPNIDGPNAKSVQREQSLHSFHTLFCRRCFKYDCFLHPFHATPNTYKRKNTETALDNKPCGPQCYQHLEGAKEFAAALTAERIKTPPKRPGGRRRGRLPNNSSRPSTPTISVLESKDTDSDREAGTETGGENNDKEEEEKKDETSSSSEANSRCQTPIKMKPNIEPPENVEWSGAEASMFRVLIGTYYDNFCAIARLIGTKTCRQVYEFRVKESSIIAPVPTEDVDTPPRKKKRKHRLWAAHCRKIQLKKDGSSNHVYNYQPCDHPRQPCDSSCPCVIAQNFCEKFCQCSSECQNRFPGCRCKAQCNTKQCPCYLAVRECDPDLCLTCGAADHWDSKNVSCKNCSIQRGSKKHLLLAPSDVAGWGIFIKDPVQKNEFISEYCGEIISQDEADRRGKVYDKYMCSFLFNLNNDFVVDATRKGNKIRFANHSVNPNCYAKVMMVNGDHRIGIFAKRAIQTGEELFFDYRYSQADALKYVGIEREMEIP

OC[C@H]1O[C@@H](n2cnc3cc(Cl)c(Cl)cc32)[C@H](O)[C@@H]1O
log2FC [1]: 1.23 | log2FC [2]: 0.92 | log2FC [3]: 0.84 | log2FC [4]: 0.65 | log2FC [5]: 0.52 | log2FC [6]: 0.48 | log2FC [7]: 0.42 | log2FC [8]: 0.38 | log2FC [9]: -0.41 | log2FC [10]: -0.46 | log2FC [11]: -0.52 | log2FC [12]: -0.55 | log2FC [13]: -0.62 | log2FC [14]: -0.63 | log2FC [15]: -0.69 | log2FC [16]: -0.7 | log2FC [17]: -0.78 | log2FC [18]: -0.85 | log2FC [19]: -0.88 | log2FC [20]: -0.92

CCCc1cc(C)[nH]c(=O)c1CNC(=O)c1cc(-c2ccnc(N3CCN(C)CC3)c2)cc2c1cnn2C(C)C
log2FC [21]: 0.79 | log2FC [22]: 0.58 | log2FC [23]: 0.4 | log2FC [24]: -0.4 | log2FC [25]: -0.41 | log2FC [26]: -0.45 | log2FC [27]: -0.46 | log2FC [28]: -0.48 | log2FC [29]: -0.52 | log2FC [30]: -0.56

Reference: ChEMBL document CHEMBL5674883, “The Heterochromatin Landscape in Migrating Cells and the Importance of H3K27me3 for Associated Transcriptome Alterations” (Cells, 2018)
